# The other results are listed elsewhere or left out.
# Amino acid sequences for entries named in this document (tags omitted). A change or cut given only in a name is not applied to a line headed by its entry.
# UniProt Q14118: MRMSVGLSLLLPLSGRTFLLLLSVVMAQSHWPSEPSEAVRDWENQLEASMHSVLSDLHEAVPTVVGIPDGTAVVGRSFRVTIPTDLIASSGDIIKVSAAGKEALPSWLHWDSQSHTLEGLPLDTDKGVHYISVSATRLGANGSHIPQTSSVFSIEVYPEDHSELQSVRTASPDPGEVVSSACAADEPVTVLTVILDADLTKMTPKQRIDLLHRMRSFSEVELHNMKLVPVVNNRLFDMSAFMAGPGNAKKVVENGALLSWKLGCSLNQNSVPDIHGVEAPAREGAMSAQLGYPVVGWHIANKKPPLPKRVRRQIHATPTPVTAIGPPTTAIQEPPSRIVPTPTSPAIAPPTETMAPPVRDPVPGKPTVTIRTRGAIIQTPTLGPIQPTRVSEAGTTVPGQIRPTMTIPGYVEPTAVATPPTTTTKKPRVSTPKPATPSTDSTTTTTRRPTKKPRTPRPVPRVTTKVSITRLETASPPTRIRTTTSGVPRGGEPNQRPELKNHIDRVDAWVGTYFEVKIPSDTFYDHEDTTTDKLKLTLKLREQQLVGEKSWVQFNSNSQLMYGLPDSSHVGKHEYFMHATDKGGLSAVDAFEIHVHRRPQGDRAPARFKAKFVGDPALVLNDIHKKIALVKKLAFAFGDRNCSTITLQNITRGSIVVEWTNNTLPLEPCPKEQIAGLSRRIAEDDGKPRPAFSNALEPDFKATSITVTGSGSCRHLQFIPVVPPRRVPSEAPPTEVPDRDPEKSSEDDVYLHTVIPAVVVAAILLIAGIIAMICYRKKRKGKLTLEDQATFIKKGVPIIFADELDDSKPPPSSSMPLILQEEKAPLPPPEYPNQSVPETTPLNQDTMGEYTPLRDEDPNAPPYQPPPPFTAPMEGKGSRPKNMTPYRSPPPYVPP
# UniProt P53634: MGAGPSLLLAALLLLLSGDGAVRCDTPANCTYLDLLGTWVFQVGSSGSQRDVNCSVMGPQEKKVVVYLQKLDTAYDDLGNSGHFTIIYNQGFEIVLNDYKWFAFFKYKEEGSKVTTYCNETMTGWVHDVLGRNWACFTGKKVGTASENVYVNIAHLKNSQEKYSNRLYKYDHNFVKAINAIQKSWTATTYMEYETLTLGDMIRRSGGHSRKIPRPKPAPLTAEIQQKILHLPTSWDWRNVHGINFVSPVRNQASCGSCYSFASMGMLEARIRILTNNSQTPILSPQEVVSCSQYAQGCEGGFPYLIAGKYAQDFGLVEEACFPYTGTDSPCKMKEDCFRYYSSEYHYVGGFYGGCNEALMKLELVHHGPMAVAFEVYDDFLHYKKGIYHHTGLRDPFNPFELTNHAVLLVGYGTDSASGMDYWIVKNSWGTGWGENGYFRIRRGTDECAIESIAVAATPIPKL
# UniProt Q96EP5: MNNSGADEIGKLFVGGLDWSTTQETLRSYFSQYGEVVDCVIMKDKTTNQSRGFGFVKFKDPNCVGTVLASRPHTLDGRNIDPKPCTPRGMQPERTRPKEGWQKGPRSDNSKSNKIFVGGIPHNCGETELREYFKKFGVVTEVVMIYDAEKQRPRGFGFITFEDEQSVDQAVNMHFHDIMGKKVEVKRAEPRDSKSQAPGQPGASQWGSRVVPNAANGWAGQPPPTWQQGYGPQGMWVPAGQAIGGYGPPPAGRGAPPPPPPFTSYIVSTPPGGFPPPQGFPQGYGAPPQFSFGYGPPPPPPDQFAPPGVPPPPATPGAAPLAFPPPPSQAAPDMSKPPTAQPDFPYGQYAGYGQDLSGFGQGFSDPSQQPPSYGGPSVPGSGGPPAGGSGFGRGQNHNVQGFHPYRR
# UniProt Q13616, whole entry, looked up: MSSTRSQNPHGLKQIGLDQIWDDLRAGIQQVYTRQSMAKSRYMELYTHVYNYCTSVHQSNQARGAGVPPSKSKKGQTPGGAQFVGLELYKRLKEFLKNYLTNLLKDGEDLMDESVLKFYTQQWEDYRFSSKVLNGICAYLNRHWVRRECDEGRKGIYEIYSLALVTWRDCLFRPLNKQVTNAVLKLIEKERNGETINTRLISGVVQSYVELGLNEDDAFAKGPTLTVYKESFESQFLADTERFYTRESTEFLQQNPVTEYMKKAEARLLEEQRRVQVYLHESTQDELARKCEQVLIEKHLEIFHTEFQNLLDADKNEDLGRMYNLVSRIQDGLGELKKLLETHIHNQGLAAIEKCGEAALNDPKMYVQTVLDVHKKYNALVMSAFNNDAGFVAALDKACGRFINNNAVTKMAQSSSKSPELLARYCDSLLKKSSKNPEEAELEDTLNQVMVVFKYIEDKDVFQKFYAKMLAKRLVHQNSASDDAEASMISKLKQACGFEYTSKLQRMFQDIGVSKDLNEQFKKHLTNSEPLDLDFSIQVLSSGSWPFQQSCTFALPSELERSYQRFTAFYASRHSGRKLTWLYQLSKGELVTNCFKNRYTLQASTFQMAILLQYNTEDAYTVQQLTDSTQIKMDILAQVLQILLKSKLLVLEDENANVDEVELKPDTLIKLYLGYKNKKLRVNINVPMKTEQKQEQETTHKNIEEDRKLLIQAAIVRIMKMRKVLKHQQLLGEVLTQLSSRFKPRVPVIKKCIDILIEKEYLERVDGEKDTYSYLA
# UniProt Q9UK59: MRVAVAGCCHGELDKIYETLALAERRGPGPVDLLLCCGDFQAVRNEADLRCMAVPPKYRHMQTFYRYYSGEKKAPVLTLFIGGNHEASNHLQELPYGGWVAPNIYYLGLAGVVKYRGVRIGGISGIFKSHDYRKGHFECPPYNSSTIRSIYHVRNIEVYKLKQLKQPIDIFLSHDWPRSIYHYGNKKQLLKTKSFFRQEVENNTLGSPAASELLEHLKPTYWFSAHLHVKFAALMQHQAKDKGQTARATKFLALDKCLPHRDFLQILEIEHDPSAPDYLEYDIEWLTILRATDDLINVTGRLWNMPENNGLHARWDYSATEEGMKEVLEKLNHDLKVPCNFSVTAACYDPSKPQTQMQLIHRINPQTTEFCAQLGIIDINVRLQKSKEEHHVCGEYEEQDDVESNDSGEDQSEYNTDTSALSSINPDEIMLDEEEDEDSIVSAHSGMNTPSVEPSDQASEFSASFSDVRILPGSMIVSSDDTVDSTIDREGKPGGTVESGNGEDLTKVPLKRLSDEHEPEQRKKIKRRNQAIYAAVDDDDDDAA
# UniProt Q14999: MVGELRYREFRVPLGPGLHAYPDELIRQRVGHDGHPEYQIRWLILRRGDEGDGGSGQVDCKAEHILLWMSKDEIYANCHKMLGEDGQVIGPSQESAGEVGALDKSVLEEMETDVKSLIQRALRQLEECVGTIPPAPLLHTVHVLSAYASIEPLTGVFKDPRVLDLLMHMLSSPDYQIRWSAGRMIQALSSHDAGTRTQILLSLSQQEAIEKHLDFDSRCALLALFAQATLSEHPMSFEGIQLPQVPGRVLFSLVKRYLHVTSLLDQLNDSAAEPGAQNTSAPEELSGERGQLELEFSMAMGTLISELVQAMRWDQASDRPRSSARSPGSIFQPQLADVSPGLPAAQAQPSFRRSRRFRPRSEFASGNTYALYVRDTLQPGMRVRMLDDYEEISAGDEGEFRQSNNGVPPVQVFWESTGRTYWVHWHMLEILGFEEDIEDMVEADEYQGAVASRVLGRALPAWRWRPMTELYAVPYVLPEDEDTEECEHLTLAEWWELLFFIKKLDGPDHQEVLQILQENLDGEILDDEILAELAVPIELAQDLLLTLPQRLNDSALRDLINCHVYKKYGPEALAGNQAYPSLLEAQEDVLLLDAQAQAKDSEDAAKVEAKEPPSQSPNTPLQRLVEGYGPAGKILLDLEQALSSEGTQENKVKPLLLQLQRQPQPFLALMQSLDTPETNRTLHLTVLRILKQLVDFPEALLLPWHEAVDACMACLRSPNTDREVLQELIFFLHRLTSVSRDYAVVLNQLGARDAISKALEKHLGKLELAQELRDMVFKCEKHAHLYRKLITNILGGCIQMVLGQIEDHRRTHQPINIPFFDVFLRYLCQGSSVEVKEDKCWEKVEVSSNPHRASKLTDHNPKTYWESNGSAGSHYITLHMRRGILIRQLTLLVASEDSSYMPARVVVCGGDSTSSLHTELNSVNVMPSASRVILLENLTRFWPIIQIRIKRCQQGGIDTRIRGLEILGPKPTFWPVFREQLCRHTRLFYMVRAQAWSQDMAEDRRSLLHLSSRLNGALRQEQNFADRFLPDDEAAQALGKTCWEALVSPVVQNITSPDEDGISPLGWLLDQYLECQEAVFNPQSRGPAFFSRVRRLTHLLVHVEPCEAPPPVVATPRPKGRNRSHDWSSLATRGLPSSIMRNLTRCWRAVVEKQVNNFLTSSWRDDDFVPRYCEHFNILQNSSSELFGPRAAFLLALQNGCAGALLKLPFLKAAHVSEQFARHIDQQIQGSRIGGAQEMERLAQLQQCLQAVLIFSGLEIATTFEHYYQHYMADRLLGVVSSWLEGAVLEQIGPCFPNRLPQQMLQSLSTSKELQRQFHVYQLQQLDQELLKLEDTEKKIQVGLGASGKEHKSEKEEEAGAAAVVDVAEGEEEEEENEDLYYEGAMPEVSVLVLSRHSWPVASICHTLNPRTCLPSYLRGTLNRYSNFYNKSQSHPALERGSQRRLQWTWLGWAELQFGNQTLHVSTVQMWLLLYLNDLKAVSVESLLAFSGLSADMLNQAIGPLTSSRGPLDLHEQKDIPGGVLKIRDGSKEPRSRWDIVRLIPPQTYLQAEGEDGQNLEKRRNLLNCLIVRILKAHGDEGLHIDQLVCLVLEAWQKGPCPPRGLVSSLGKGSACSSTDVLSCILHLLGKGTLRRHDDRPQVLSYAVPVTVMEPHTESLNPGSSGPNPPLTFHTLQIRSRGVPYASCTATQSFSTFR
# UniProt O60911: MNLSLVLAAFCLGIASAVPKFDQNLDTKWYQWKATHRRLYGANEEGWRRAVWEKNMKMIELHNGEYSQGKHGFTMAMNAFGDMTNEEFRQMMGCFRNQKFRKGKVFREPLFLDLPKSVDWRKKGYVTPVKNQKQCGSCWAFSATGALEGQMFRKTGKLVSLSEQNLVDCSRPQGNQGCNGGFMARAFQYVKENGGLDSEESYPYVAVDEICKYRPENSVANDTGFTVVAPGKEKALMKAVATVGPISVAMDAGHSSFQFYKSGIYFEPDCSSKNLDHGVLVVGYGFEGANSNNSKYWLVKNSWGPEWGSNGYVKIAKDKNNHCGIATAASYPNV
# UniProt Q14203, whole entry, looked up: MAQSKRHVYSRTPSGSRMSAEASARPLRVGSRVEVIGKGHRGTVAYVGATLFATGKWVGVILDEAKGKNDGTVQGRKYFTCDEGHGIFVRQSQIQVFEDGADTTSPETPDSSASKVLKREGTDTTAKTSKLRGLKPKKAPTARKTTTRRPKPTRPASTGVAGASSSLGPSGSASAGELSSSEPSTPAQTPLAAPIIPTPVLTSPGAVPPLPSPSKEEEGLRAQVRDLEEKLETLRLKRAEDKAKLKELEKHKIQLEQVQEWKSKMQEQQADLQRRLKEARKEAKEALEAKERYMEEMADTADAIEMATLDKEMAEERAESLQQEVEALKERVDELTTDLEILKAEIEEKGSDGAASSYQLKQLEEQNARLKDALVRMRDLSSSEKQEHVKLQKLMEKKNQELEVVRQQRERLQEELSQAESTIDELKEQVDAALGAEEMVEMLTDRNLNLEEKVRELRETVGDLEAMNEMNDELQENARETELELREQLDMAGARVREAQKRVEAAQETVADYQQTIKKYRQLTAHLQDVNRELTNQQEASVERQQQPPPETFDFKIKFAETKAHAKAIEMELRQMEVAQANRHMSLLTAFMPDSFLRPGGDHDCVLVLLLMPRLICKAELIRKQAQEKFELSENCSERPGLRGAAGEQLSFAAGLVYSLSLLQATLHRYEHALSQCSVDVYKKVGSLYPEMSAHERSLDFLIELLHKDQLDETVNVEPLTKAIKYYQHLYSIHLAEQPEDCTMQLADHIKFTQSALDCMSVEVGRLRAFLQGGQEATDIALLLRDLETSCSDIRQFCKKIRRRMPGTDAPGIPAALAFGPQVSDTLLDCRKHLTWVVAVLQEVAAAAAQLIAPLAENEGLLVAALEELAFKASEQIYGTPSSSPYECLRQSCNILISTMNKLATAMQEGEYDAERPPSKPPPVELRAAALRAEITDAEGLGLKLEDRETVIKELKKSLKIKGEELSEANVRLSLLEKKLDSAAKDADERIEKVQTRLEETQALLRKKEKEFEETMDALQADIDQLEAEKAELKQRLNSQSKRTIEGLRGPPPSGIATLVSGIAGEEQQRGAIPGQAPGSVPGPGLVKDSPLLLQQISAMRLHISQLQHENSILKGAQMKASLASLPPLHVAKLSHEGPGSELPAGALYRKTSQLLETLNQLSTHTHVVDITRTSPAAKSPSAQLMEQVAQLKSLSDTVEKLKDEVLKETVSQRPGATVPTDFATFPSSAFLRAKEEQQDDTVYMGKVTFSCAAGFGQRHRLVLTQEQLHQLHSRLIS
# UniProt O60888: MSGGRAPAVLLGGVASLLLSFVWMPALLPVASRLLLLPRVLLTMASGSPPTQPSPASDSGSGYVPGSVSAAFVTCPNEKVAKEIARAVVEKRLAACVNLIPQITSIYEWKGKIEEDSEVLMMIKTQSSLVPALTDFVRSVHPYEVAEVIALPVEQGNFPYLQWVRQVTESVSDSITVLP
# Compound: Cc1cc(ccc1-c1ccccc1)C(=O)N1CCCN(CC1)C(=O)CCl [compound 10]
# Experiment: probe-labelled cysteine peptide fold change vs DMSO (competition) (log2 fold change); higher = less target engagement (more negative = stronger competition)
# Settings: THP-1, incubation time: 4 h
# 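Further: competitive profiling in live THP-1 cells: cysteine peptides tagged with an iodoacetamide desthiobiotin (IA-DTB) probe, intensity after compound treatment relative to DMSO-treated cells.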
Target,probe-labelled cysteine peptide fold change (10 µM),probe-labelled cysteine peptide fold change (50 µM)
DAXX_Q9UER7_106_AHSLFLASAEFCNILSR (UniProt Q9UER7),0.131,0.167
CXXC1_Q9P0U4_420_IQQWQQSPCIAEEHGK (UniProt Q9P0U4),0.0146,0.158
DCTN4_Q9UJW0_280_KCEHNLSKPEFNPTSIK (UniProt Q9UJW0),-0.0511,-0.0509
DAG1_Q14118_713_ATSITVTGSGSCR (UniProt Q14118),-0.158,-0.346
DARS_P14868_349_FLEPTLRLEYCEALAMLR (UniProt P14868),-0.183,-0.703
CTSC_P53634_448_RGTDECAIESIAVAATPIPK (UniProt P53634),-0.102,0.0228
CYB5R3_P00387_204_AIMKDPDDHTVCHLLFANQTEK (UniProt P00387),-0.00544,-0.205
CWF19L1_Q69YN2_11_LLACGDVEGK (UniProt Q69YN2),-0.0743,0.168
CTR9_Q6PD62_231_CVGALVGLAVLELNNK (UniProt Q6PD62),-0.0314,0.0276
DCAF12_Q5T6F0_177_LPTLDPVCVGDDGHK (UniProt Q5T6F0),-0.083,-0.146
DCK_P27707_9_SCPSFSASSEGTR (UniProt P27707),-0.0377,-0.419
DCP2_Q8IU60_140_VNKEEAPHDCAAR (UniProt Q8IU60),-0.144,-0.323
CYLD_Q9NQC7_934_RIQGCAR (UniProt Q9NQC7),-0.0418,-0.316
DAZAP1_Q96EP5_63_DPNCVGTVLASRPHTLDGR (UniProt Q96EP5),0.117,0.131
DAZAP1_Q96EP5_63_FKDPNCVGTVLASR (UniProt Q96EP5),0.157,-0.0582
CUL1_Q13616_291_CEQVLIEK (UniProt Q13616),0.0321,0.168
CTR9_Q6PD62_817_QCSDLLSQAQYHVAR (UniProt Q6PD62),0.3,0.441
DBR1_Q9UK59_339+347_VPCNFSVTAACYDPSKPQTQMQLIHR (UniProt Q9UK59),-0.11,-0.187
CTSZ_Q9UBR2_179_ECHAIR (UniProt Q9UBR2),0.892,2.23

# Quoted at random: 2 entries already listed.
Target,probe-labelled cysteine peptide fold change (10 µM),probe-labelled cysteine peptide fold change (50 µM)
DAG1_Q14118_713_ATSITVTGSGSCR (UniProt Q14118),-0.158,-0.346
DAZAP1_Q96EP5_63_FKDPNCVGTVLASR (UniProt Q96EP5),0.157,-0.0582

# (next part)

Target,probe-labelled cysteine peptide fold change (10 µM),probe-labelled cysteine peptide fold change (50 µM)
CUL7_Q14999_1106_LTHLLVHVEPCEAPPPVVATPR (UniProt Q14999),-0.256,-0.365
CYTH1_Q15438_323_EVEDSKKPNCFELYIPDNK (UniProt Q15438),-0.0153,-0.555
CTSC_P53634_355_YYSSEYHYVGGFYGGCNEALMK (UniProt P53634),0.171,0.075
CUL7_Q14999_952_CQQGGIDTR (UniProt Q14999),-0.417,-0.0198
CYB5R3_P00387_284_DHLPPPEEEPLVLMCGPPPMIQYACLPNLDHVGHPTER (UniProt P00387),0.38,0.0265
CTSV_O60911_323_NNHCGIATAASYPNV (UniProt O60911),-0.122,0.2
CTSS_P25774_180_GCNGGFMTTAFQYIIDNK (UniProt P25774),-0.0125,-0.142
DBR1_Q9UK59_36+37_GPGPVDLLLCCGDFQAVR (UniProt Q9UK59),-0.197,-0.29
CUL1_Q13616_149_ECDEGR (UniProt Q13616),-0.00786,0.0945
CUL5_Q93034_265_RECNSVEALMECCVNALVTSFK (UniProt Q93034),0.18,0.12
CUL9_Q8IWT3_2300_CTFHHQAR (UniProt Q8IWT3),-0.13,-0.333
CUL4B_Q13620_533_DKVDHIIDICFLK (UniProt Q13620),0.0105,0.479
DBT_P11182_279_IPHFGYCDEIDLTELVK (UniProt P11182),-0.0741,0.014
DCAF8_Q5TAQ9_195_LQHGLEGHTGCVNTLHFNQR (UniProt Q5TAQ9),-0.272,-0.126
DCTN1_Q14203_830_MPGTDAPGIPAALAFGPQVSDTLLDCR (UniProt Q14203),0.345,0.472
DDAH2_O95865_220_AMAVLTDHPYASLTLPDDAAADCLFLRPGLPGVPPFLLHR (UniProt O95865),0.061,0.0115
CUL7_Q14999_1201_AAFLLALQNGCAGALLK (UniProt Q14999),-0.473,0.0183
CUTA_O60888_96_LAACVNLIPQITSIYEWK (UniProt O60888),-0.112,-0.036
CTSB_P07858_319_ILRGQDHCGIESEVVAGIPR (UniProt P07858),0.0097,-0.33

# Source: the supplement of paper PMC12067093, “Discovery and optimisation of a covalent ligand for TRIM25 and its application to targeted protein ubiquitination” (Chemical Science, 2025)
